Measurements: article PMC4957776
No constants are given. Whether binding was seen depends on the method and setting. Binding can be weak; no strength is given. Where a sequence is shown, tags or fusion partners need not be part of it.

Target: T1, Dehydration-induced 19-1 (DI19-1), fused with BD domain (rice (Oryza sativa)) (UniProt Q688X9)
T1 sequence: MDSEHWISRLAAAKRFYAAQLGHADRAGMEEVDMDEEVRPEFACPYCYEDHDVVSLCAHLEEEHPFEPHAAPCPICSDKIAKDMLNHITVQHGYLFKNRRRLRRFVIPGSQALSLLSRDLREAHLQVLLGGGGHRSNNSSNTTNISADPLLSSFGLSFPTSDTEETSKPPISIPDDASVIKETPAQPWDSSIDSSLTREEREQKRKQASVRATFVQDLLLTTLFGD
Experiment: two-hybrid; Matchmaker Gold system; co-transformation of both plasmids into Y2HGold; growth on SD/-Trp-Leu, interaction by colony growth on SD/-Trp-Leu-Ade-His with X-α-Gal

binding: binds
Substance: Serine carboxypeptidase 46 (SCP46), fused with AD (rice (Oryza sativa)) (enzyme)
